PubChem BioAssay AID1508597 | Cure First, 2020
Screen: 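Survival screen with siRNA in ovarian cancer cells derived from patients, with or without rucaparib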 (primary screen). System: human ovarian carcinoma lines grown from tumours: OCI-P5x (papillary serous) and OCI-C5x (clear cell). Reagent: siRNA pool against human genes, 1.25 pmol siRNA per well. Timing: 72 h or 96 h, depending on the cell culture. Treatment: rucaparib 20 µM (about IC30) or vehicle, present until read-out. Rucaparib or vehicle: Vehicle. Cell line: OCI-C5x (clear cell). Measured: 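ATP luminescence measured at 72 or 96 h according to the culture, then normalised and expressed as percent viability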. Direction: viability, normalised: higher = more viable cells remaining. Call rule: 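a well counts as a hit if its normalised viability is under 80 percent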. Meaning of the calls: active = viability under 80%; inactive = viability 80% or more.
This is an unselected part of the about 2,100 reagents, in one setting of the screen. 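Calls flag viability under 80% in either arm, not effects specific to rucaparib; the reference for percent is not stated.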 A reagent listed more than once was tested more than once; the source does not tell the runs apart. Reagent sequences are not shown. Not given: the 100% reference.

| target | technical replicate | viability, normalised (%) | call |
| --- | --- | --- | --- |
| CACNA1A (calcium voltage-gated channel subunit alpha1 A) | 1 | 43.9 | active |
| CACNA1A (calcium voltage-gated channel subunit alpha1 A) | 2 | 55.5 | active |
| CACNA1A (calcium voltage-gated channel subunit alpha1 A) | 3 | 43.5 | active |
| PFKL (phosphofructokinase, liver type) | 1 | 77.2 | active |
| PFKL (phosphofructokinase, liver type) | 2 | 64.4 | active |
| PFKL (phosphofructokinase, liver type) | 3 | 50.7 | active |
| MED12 (mediator complex subunit 12) | 1 | 33.4 | active |
| MED12 (mediator complex subunit 12) | 2 | 45.4 | active |
| MED12 (mediator complex subunit 12) | 3 | 46.5 | active |
| MYOCD (myocardin) | 1 | 26.4 | active |
| MYOCD (myocardin) | 2 | 28.6 | active |
| MYOCD (myocardin) | 3 | 41.5 | active |
| ZFAT (zinc finger and AT-hook domain containing) | 1 | 24.2 | active |
| ZFAT (zinc finger and AT-hook domain containing) | 2 | 21.4 | active |
| ZFAT (zinc finger and AT-hook domain containing) | 3 | 17.3 | active |
| RPS6KA4 (ribosomal protein S6 kinase A4) | 1 | 87 | inactive |
| RPS6KA4 (ribosomal protein S6 kinase A4) | 2 | 70.5 | active |
| RPS6KA4 (ribosomal protein S6 kinase A4) | 3 | 59.8 | active |
| PRKCI (protein kinase C iota) | 1 | 37.9 | active |
| PRKCI (protein kinase C iota) | 1 | 55.6 | active |
| PRKCI (protein kinase C iota) | 2 | 51.3 | active |
| PRKCI (protein kinase C iota) | 2 | 49.5 | active |
| PRKCI (protein kinase C iota) | 3 | 43.1 | active |
| PRKCI (protein kinase C iota) | 3 | 41.2 | active |
| NRK (Nik related kinase) | 1 | 70.1 | active |
| NRK (Nik related kinase) | 2 | 75.1 | active |
| NRK (Nik related kinase) | 3 | 61.2 | active |

6 entries from above, ordered by “viability, normalised (%)”, high to low:
| target | technical replicate | viability, normalised (%) | call |
| --- | --- | --- | --- |
| RPS6KA4 (ribosomal protein S6 kinase A4) | 1 | 87 | inactive |
| RPS6KA4 (ribosomal protein S6 kinase A4) | 2 | 70.5 | active |
| RPS6KA4 (ribosomal protein S6 kinase A4) | 3 | 59.8 | active |
| PRKCI (protein kinase C iota) | 1 | 37.9 | active |
| ZFAT (zinc finger and AT-hook domain containing) | 2 | 21.4 | active |
| ZFAT (zinc finger and AT-hook domain containing) | 3 | 17.3 | active |

Further entries follow.
| target | technical replicate | viability, normalised (%) | call |
| --- | --- | --- | --- |
| EHMT2 (euchromatic histone lysine methyltransferase 2) | 1 | 60.4 | active |
| EHMT2 (euchromatic histone lysine methyltransferase 2) | 2 | 55.4 | active |
| EHMT2 (euchromatic histone lysine methyltransferase 2) | 3 | 57.3 | active |
| TEC (transient erythroblastopenia of childhood) | 1 | 62 | active |
| TEC (transient erythroblastopenia of childhood) | 2 | 54.1 | active |
| TEC (transient erythroblastopenia of childhood) | 3 | 56.3 | active |
| CSK (C-terminal Src kinase) | 1 | 54.2 | active |
| CSK (C-terminal Src kinase) | 2 | 53.3 | active |
| CSK (C-terminal Src kinase) | 3 | 40.3 | active |
| AIRE (autoimmune regulator) | 1 | 55.8 | active |
| AIRE (autoimmune regulator) | 2 | 41.5 | active |
| AIRE (autoimmune regulator) | 3 | 41.3 | active |
| GTF2H4 (general transcription factor IIH subunit 4) | 1 | 46 | active |
| GTF2H4 (general transcription factor IIH subunit 4) | 1 | 52.6 | active |
| GTF2H4 (general transcription factor IIH subunit 4) | 2 | 46.1 | active |
| GTF2H4 (general transcription factor IIH subunit 4) | 2 | 42.4 | active |
| GTF2H4 (general transcription factor IIH subunit 4) | 3 | 23.8 | active |
| GTF2H4 (general transcription factor IIH subunit 4) | 3 | 43.4 | active |
| NFATC1 (nuclear factor of activated T cells 1) | 1 | 32.8 | active |
| NFATC1 (nuclear factor of activated T cells 1) | 2 | 22 | active |
| NFATC1 (nuclear factor of activated T cells 1) | 3 | 42.7 | active |
| CD79A (CD79a molecule) | 1 | 50.3 | active |
| CD79A (CD79a molecule) | 2 | 58.5 | active |
| CD79A (CD79a molecule) | 3 | 52.2 | active |
| BAIAP2 (BAR/IMD domain containing adaptor protein 2) | 1 | 37.6 | active |
| BAIAP2 (BAR/IMD domain containing adaptor protein 2) | 2 | 41.1 | active |
| BAIAP2 (BAR/IMD domain containing adaptor protein 2) | 3 | 36.3 | active |
| DCLK2 (doublecortin like kinase 2) | 1 | 59.8 | active |
| DCLK2 (doublecortin like kinase 2) | 2 | 60.7 | active |
| DCLK2 (doublecortin like kinase 2) | 3 | 56.2 | active |
